“Also recorded” adds a separate entry of the source. At least one structure is not confirmed: it was looked up by name or label, or the drawing left a doubt.
What was measured:
[1] = system: GBM patients; test: Survival of temozolomide-treated GBM patients stratified by ZEB1 copy number and MGMT expression; format: in vivo, human; settings: regardless of MGMT status
Excerpt: Given our observations that ZEB1 and CD133 expression imparts GSC resistance to differentiation and impacts patient survival, we considered if ZEB1 loss would impact response to therapy. To do this, we explored the role of 06-methylguanine-DNA methyltransferase (MGMT) which removes DNA alkylating agents and therefore hinders the effectiveness of chemotherapeutic alkylating agents including temozolomide.^28 The MGMT promoter region has been shown when hypermethylated to suppress MGMT activity conferring chemosensitivity resulting in favorable prognosis compared to the hypomethylated state of MGMT which results in poor patient outcomes. MGMT expression is inversely correlated to its methylated state. We sought to determine the effect of ZEB1 loss on the clinical impact of hypermethylation of MGMT in the presence of temozolomide.
MGMT expression is inversely correlated to its methylated state. We sought to determine the effect of ZEB1 deletion on the clinical impact of hypermethylation of MGMT in the presence of temozolomide.

[2] = system: GSCs; test: Temozolomide exposure of GSCs, LIF and ZEB1 expression; format: cell-based, human; settings: temozolomide 48 hr (25 μM)

Cn1nnc2c(C(N)=O)ncn2c1=O [temozolomide]
response of ZEB1 deleted glioblastoma patients to chemotherapy [1]: resistance to temozolomide chemotherapy | LIF expression [2]: increased | ZEB1 expression [2]: decreased; also recorded: downregulation
